Source: PubChem BioAssay AID256 (DTP/NCI, 2004)
The list does not hold the whole screen: it gathers tests that were run many times, whatever their T/C, doses with no T/C, and many T/C values between a quarter and a half above the control. Other doses and runs of a compound stand elsewhere. T/C is the treated group as % of the vehicle group. Some entries give survivors of the animals treated and no T/C: the source files T/C as zero there, which appears to mark a toxic dose or a test without result, not a measured value. Some survivor counts are full or nearly so, which does not show that the dose was tolerated: the source hardly ever lists a survival T/C far under the control, and the zero likely stands for such cases as well. Survivors were counted at the toxicity check, usually on the fifth day, unless a day is given; later deaths do not show. Schedules are NCI's codes, taken here to give the interval after Q, in days (D) or hours (H), and the number of doses after X. Some entries were tested several times; the results are listed from low to high. Some structures stand for samples that the source files as different forms (salt, stereo form or complex); doses refer to the form tested. Where survival is the endpoint, the PubChem record calls one and a half times the control and up active, and a quarter to a half above the control has no call in these data; cut-offs in other NCI protocols can differ.

Test system: CD2F1 mice, L1210 leukemia ip, survival T/C
Assay: NCI In Vivo Anticancer Drug Screen. Data for tumor model L1210 Leukemia (intraperitoneal) in CD2F1 (CDF1) mice
Conditions: higher T/C = longer survival
Outline: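 Tumor-bearing mice (transplanted tumor) were split into treated and vehicle control groups, and the measured endpoint of each treated group was divided by that of its vehicle controls.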

[1] = T/C endpoint: mean survival time, dose: 50.0 mg/kg/injection, schedule: Q04DX003 (ip), vehicle: saline with Tween-80
[2] = T/C endpoint: mean survival time, dose: 100.0 mg/kg/injection, schedule: Q04DX003 (ip), vehicle: saline with Tween-80
[3] = T/C endpoint: mean survival time, dose: 200.0 mg/kg/injection, schedule: Q04DX003 (ip), vehicle: saline with Tween-80
[4] = T/C endpoint: mean survival time, dose: 400.0 mg/kg/injection, schedule: Q04DX003 (ip), vehicle: saline with Tween-80

**Q.** CS(=O)(=O)CC#N was tested. Which survivor count (T/C endpoint: mean survival time, dose: 50.0 mg/kg/injection, schedule: Q01DX009 (ip), vehicle: saline) did it give?
**A.** The survivor count was 2 of 6 and 2 of 3.

**Q.** And the survivor count (T/C endpoint: mean survival time, dose: 50.0 mg/kg/injection, schedule: Q04DX002 (ip), vehicle: saline)?
**A.** Its survivor count is 1 of 3.

**Q.** And the survivor count [1]?
**A.** Its survivor count is 4 of 6.

**Q.** What about the survivor count (T/C endpoint: mean survival time, dose: 100.0 mg/kg/injection, schedule: Q04DX002 (ip), vehicle: saline with Tween-80) of the same molecule?
**A.** The survivor count was 4 of 6.

**Q.** And the survivor count (T/C endpoint: mean survival time, dose: 100.0 mg/kg/injection, schedule: Q04DX002 (ip), vehicle: saline)?
**A.** Its survivor count is 0 of 3 and 0 of 6.

**Q.** And the survivor count (T/C endpoint: mean survival time, dose: 200.0 mg/kg/injection, schedule: Q04DX002 (ip), vehicle: saline with Tween-80)?
**A.** The survivor count was 0 of 6.

**Q.** And the survivor count (T/C endpoint: mean survival time, dose: 400.0 mg/kg/injection, schedule: Q04DX002 (ip), vehicle: saline with Tween-80)?
**A.** The survivor count was 0 of 6.

**Q.** Which results are given for [Cl][Pt+2][Cl].[NH-]CCN(CCN)CCN?
**A.** survivor count [1]: 0 of 6; survivor count [2]: 0 of 6; survivor count [3]: 0 of 6

**Q.** What does the source list for C[N+](C)(C)CCOC(=O)c1ccc(CBr)c(CBr)c1?
**A.** survivor count (T/C endpoint: mean survival time, dose: 100.0 mg/kg/injection, schedule: Q04DX003 (ip), vehicle: saline): 0 of 6; survivor count (T/C endpoint: mean survival time, dose: 200.0 mg/kg/injection, schedule: Q04DX003 (ip), vehicle: saline): 0 of 6; survivor count (T/C endpoint: mean survival time, dose: 400.0 mg/kg/injection, schedule: Q04DX003 (ip), vehicle: saline): 0 of 6

**Q.** How did the survivor count (T/C endpoint: mean survival time, dose: 0.19 mg/kg/injection, schedule: Q01DX009 (ip), vehicle: saline) turn out when C[CH2][Sn](/[CH]=C/C=C/OC)([CH2]C)[CH2]C was run?
**A.** Its survivor count is 0 of 3.

**Q.** And the survivor count (T/C endpoint: mean survival time, dose: 3.12 mg/kg/injection, schedule: Q01DX009 (ip), vehicle: saline)?
**A.** Its survivor count is 0 of 3.

**Q.** And the survivor count (T/C endpoint: mean survival time, dose: 6.25 mg/kg/injection, schedule: Q01DX009 (ip), vehicle: saline)?
**A.** The survivor count was 0 of 3.

**Q.** What about the survivor count (T/C endpoint: mean survival time, dose: 12.5 mg/kg/injection, schedule: Q01DX009 (ip), vehicle: saline) of the same molecule?
**A.** Its survivor count is 0 of 3.

**Q.** Which survivor count (T/C endpoint: mean survival time, dose: 400.0 mg/kg/injection, schedule: Q01DX009 (ip), vehicle: saline) does the source give for Cc1nnc2ncccn12 here?
**A.** Its survivor count is 0 of 10 and 4 of 6.

**Q.** Which survivor count (T/C endpoint: median survival time, dose: 31.0 mg/kg/injection, schedule: Q04DX002 (ip), vehicle: saline with Tween-80) does the source give for CCC1(O)C(=O)OCc2c1cc1n(c2=O)Cc2cc3cc([N+](=O)[O-])ccc3nc2-1 (stereo unspecified) here?
**A.** The survivor count was 4 of 6 and 6 of 6.

**Q.** What about the survivor count (T/C endpoint: median survival time, dose: 62.0 mg/kg/injection, schedule: Q04DX002 (ip), vehicle: saline with Tween-80) of the same molecule?
**A.** Its survivor count is 4 of 6 and 6 of 6.

**Q.** What does the source list for CC(=O)Oc1cc2c3c(c1)CCCN3CCC2?
**A.** survivor count (T/C endpoint: mean survival time, dose: 10.0 mg/kg/injection, schedule: Q04DX003 (ip), vehicle: saline): 2 of 6; survivor count (T/C endpoint: mean survival time, dose: 20.0 mg/kg/injection, schedule: Q04DX003 (ip), vehicle: saline): 0 of 6; survivor count (T/C endpoint: mean survival time, dose: 25.0 mg/kg/injection, schedule: Q01DX009 (ip), vehicle: saline with Tween-80): 3 of 6; survivor count [2]: 0 of 6; survivor count [3]: 0 of 6; survivor count [4]: 0 of 6

**Q.** With C[N+]1(CCO)C2CCC1CC(O)C2 (stereo unspecified) as the molecule, how does the survivor count (T/C endpoint: mean survival time, dose: 400.0 mg/kg/injection, schedule: Q04DX002 (ip), vehicle: saline) read?
**A.** Its survivor count is 0 of 3.

**Q.** O=C1CN(CCN2CC(=O)N(CN3CCOCC3)C(=O)C2)CC(=O)N1CN1CCOCC1 was tested. Which T/C (T/C endpoint: median survival time, dose: 25.0 mg/kg/injection, schedule: Q01DX009 (ip), vehicle: water) did it give?
**A.** The T/C was 138 % of control.

**Q.** And the T/C (T/C endpoint: median survival time, dose: 50.0 mg/kg/injection, schedule: Q01DX009 (ip), vehicle: water)?
**A.** The T/C was 136 % of control.

**Q.** What about the survivor count (T/C endpoint: median survival time, dose: 400.0 mg/kg/injection, schedule: Q01DX009 (ip), vehicle: water) of the same molecule?
**A.** The survivor count was 0 of 6.

**Q.** Which survivor count (T/C endpoint: mean survival time, dose: 100.0 mg/kg/injection, schedule: Q01DX005 (ip), vehicle: distilled water + Tween-80) does the source give for CCCc1cc(C(C)=O)c[n+](C2OC(COC(=O)c3ccccc3)C(OC(=O)c3ccccc3)C2O)c1 (stereo unspecified) here?
**A.** Its survivor count is 3 of 6.

**Q.** What about the survivor count (T/C endpoint: mean survival time, dose: 200.0 mg/kg/injection, schedule: Q01DX005 (ip), vehicle: distilled water + Tween-80) of the same molecule?
**A.** Its survivor count is 1 of 6.

**Q.** Which survivor count (T/C endpoint: mean survival time, dose: 400.0 mg/kg/injection, schedule: Q01DX001 (ip), vehicle: other) does the source give for Nc1cc(NC(c2ccccc2)c2ccccc2)c2[nH]cnc2n1 here?
**A.** The survivor count was 1 of 6.

**Q.** What does the source list for CCN(CC)CCCC(C)Nc1cc(C)nc(Nc2nc3cc(Cl)c(Cl)cc3[nH]2)n1 (stereo unspecified)?
**A.** survivor count [2]: 0 of 6; survivor count [3]: 0 of 6; survivor count [4]: 0 of 6
